This is one part of the list.

Chains of the proteins cited; added tags and fusions are not shown. Lines headed by an entry give the natural chain unless they say otherwise; changes in a name come on top.
UniProt Q6JBY9, whole entry, looked up: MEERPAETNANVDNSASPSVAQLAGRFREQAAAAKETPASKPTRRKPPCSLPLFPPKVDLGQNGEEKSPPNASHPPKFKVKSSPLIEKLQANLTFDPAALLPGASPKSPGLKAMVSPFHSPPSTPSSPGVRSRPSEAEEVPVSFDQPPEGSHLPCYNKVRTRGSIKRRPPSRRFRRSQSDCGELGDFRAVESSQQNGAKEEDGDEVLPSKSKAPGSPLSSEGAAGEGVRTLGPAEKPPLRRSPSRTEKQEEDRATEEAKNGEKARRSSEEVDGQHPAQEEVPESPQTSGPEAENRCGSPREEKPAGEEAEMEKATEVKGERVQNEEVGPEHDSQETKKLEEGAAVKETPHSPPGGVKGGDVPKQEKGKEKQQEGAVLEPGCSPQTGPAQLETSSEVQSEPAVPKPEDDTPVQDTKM
UniProt Q96NA2: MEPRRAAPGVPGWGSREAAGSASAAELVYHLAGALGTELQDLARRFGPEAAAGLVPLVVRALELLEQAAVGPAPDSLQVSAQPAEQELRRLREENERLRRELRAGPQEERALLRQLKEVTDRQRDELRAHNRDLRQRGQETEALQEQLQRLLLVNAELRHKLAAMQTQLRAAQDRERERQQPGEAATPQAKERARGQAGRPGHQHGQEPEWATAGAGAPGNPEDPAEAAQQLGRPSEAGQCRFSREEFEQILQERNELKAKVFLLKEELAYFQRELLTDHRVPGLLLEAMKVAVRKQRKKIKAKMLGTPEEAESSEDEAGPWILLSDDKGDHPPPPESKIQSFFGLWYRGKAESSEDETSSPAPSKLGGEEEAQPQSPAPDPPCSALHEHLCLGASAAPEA
UniProt Q9Y580: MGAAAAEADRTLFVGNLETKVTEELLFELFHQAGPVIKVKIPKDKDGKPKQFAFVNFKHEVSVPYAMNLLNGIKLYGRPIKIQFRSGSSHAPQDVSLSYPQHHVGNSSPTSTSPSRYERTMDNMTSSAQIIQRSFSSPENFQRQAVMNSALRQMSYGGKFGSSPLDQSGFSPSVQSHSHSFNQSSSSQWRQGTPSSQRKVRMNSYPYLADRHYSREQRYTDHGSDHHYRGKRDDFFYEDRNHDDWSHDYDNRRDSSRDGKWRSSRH
UniProt Q9H6W3: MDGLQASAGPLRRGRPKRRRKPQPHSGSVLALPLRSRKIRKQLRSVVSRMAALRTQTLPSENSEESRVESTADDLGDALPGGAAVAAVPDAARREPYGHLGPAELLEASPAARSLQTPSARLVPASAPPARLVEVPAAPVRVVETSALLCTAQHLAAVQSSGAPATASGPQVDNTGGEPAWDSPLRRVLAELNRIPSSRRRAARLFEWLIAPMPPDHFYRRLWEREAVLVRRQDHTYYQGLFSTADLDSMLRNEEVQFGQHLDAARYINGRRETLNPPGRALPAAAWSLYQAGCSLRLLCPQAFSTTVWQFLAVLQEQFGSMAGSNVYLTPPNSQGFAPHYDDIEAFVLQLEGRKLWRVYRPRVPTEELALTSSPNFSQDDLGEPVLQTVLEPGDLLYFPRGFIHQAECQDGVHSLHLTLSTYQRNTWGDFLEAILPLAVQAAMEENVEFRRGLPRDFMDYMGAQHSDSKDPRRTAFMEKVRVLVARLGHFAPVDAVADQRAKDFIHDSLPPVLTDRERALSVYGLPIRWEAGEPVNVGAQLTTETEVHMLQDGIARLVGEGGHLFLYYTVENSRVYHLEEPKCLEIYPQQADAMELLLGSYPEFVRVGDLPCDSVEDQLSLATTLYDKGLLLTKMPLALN
UniProt Q9HBH5: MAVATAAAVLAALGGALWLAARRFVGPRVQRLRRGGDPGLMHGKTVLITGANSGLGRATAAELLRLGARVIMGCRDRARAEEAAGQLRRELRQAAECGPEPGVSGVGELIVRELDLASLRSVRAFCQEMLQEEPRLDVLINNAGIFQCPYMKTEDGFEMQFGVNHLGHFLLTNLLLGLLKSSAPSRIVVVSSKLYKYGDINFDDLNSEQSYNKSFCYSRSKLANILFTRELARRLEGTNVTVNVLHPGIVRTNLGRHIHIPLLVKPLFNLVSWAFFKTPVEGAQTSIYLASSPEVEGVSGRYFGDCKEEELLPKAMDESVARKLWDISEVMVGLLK
UniProt P84095: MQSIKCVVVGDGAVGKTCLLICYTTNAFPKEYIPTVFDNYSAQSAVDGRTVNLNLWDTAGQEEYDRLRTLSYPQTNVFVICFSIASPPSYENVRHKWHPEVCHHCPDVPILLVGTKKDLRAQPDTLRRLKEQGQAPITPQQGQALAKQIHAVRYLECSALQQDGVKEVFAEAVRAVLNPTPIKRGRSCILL
UniProt Q6NTF9: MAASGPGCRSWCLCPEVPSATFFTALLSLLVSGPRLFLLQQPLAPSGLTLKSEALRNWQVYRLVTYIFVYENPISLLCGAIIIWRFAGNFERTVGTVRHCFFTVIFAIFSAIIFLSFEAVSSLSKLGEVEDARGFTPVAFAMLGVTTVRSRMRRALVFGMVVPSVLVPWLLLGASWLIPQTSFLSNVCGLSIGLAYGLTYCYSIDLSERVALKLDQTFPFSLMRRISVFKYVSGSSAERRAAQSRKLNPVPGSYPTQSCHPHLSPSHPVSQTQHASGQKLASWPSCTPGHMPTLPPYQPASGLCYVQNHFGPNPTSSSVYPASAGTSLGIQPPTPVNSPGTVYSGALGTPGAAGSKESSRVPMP
UniProt Q9Y256: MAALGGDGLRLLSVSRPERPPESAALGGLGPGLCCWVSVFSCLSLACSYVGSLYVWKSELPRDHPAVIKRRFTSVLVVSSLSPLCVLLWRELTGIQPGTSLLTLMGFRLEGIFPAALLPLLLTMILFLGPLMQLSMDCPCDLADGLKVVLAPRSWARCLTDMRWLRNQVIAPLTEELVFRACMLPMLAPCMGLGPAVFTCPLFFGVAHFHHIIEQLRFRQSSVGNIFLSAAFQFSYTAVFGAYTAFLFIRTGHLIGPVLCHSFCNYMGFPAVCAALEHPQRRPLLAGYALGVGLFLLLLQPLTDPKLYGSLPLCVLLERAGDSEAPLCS
UniProt Q00765: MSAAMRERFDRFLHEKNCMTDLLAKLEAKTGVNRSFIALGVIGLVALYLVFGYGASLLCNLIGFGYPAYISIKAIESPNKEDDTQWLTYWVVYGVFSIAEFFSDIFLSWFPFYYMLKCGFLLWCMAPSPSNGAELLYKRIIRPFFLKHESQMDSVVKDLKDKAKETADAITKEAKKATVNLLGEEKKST
UniProt P34096: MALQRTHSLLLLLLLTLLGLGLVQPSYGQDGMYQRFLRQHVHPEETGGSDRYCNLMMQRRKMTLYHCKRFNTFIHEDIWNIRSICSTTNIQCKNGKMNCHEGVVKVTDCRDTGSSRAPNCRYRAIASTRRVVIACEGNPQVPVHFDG
UniProt Q9BV68: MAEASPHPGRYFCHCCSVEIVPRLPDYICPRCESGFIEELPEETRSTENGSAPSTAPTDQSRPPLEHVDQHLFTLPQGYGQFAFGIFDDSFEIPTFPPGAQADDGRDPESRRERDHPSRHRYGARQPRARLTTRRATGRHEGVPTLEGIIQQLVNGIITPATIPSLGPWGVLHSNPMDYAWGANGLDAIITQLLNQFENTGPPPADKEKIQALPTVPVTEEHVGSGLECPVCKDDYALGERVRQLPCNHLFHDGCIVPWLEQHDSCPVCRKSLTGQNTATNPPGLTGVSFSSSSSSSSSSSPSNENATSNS
UniProt P08134, whole entry, looked up: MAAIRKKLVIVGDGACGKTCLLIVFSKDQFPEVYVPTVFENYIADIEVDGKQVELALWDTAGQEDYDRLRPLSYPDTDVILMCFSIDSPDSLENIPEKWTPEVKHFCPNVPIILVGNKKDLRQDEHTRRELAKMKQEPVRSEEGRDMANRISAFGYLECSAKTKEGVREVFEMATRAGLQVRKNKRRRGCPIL
UniProt Q96I51, whole entry, looked up: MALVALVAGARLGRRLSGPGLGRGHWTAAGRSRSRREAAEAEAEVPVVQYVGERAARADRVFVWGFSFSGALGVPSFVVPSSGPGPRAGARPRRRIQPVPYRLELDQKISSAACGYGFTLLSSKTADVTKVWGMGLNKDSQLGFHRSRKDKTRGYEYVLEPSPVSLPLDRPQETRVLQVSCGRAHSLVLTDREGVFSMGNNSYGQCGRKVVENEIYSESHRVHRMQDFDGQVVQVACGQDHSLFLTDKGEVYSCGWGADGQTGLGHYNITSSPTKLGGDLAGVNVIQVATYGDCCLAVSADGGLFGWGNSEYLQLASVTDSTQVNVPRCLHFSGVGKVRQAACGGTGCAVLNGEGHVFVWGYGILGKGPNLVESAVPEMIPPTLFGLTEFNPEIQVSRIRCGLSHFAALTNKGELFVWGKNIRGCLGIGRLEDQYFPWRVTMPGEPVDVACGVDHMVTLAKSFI
UniProt Q8TDP1: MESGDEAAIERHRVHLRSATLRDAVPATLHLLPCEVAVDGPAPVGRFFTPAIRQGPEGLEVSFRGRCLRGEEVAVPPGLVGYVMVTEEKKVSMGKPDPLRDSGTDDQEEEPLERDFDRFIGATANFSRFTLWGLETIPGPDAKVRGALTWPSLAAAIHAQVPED
UniProt O15541: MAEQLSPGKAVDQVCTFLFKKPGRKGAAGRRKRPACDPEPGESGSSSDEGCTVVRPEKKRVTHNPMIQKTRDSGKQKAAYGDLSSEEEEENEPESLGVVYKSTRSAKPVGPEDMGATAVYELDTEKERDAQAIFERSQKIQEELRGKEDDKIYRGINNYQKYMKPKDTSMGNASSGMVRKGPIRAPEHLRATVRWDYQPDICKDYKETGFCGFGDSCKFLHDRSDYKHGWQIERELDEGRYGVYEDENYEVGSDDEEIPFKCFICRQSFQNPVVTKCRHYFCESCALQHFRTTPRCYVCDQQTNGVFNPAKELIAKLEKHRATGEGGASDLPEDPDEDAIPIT
UniProt Q9H920: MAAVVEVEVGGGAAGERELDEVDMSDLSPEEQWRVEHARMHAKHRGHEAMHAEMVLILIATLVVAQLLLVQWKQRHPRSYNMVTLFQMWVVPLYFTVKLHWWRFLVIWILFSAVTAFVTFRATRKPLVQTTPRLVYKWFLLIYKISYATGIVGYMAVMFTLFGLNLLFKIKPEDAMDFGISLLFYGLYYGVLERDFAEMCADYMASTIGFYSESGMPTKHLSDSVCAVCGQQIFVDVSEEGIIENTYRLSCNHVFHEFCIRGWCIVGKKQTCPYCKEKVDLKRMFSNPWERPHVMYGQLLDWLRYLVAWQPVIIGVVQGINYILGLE
UniProt Q9BWE0: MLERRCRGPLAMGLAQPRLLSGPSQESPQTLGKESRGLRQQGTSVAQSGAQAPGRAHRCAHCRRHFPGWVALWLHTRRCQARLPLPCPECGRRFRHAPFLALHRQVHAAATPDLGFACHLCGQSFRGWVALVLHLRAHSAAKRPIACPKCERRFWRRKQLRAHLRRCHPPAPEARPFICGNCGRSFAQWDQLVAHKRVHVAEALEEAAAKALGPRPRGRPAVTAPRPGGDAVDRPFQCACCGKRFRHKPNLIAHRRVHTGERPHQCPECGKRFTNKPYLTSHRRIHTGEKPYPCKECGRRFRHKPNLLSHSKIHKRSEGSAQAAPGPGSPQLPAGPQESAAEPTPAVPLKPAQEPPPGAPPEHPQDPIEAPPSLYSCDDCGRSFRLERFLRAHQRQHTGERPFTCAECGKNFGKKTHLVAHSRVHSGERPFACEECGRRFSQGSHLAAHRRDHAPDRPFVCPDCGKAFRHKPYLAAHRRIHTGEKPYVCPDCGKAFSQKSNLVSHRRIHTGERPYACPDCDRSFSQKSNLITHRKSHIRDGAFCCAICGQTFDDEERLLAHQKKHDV
UniProt P62877, whole entry, looked up: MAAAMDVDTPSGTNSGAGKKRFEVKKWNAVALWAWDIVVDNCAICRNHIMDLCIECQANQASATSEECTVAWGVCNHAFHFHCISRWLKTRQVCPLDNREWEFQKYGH
UniProt Q9ULI2: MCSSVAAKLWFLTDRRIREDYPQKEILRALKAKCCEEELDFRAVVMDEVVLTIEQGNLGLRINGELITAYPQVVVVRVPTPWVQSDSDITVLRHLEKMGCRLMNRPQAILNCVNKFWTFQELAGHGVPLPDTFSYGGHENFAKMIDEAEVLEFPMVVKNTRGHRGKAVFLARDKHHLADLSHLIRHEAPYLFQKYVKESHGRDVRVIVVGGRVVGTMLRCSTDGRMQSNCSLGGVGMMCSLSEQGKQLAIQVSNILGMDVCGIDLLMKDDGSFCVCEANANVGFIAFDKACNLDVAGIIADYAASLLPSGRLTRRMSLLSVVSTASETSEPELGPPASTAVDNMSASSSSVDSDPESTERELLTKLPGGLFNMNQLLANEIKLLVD
UniProt O00287: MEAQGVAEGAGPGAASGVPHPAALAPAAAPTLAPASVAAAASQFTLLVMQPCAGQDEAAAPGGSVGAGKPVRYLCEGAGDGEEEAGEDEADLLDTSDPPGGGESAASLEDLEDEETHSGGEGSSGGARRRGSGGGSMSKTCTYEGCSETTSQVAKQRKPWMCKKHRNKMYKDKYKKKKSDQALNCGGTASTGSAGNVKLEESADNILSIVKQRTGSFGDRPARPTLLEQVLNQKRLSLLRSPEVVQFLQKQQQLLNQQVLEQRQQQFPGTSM

Compound in the assay: c1cn2cc(-c3ccc4cn[nH]c4c3)nc(Nc3ccc(N4CCOCC4)cc3)c2n1 [entospletinib]
Nature of the assay: log2 fold change, soluble protein after heating vs DMSO (PISA); higher = thermal stabilisation; K562 cells, 10 uM, 30 min; active = over 0.2 and 3.5 SD of the protein, either way, in both replicates (recomputed). The essentials:
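Aliquots of K562 cells (2×10^6 cells/mL) treated with 10 μM compound for 30 min were heated for 3 min over 48°C-58°C. After pooling and extraction in PBS with 0.5% NP-40 at 4°C, soluble protein from a 21,000xg, 90 min spin was quantified by TMTpro 16plex LC-MS/MS with channel sums equalised. Thermal stability is expressed against control samples, from duplicates, as a log2 fold change.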
In the case of RFX1 (UniProt P22670), the log2 fold change was inactive: -0.026.

For the target RIOK1 (UniProt Q9BRS2), the log2 fold change is inactive: 0.027.

Turning to RCSD1 (UniProt Q6JBY9), the log2 fold change was inactive: 0.033.

As for RILP (UniProt Q96NA2), the log2 fold change was inactive: -0.001.

On to RBM7 (UniProt Q9Y580), for which the log2 fold change was inactive: 0.025.

RHOB (UniProt P62745): the log2 fold change is inactive: -0.028.

As to RMND5A (UniProt Q9H871), the log2 fold change was inactive: 0.028.

For the target RIOX1 (UniProt Q9H6W3), the log2 fold change was inactive: 0.139.

For RDH14 (UniProt Q9HBH5), the log2 fold change is inactive: 0.057.

With RCN2 isoform 2 (UniProt Q14257), the log2 fold change was inactive: -0.027.

For the target RHOG (UniProt P84095), the log2 fold change is inactive: -0.053.

RHBDD2 isoform 2 (UniProt Q6NTF9): the log2 fold change is inactive: -0.197.

Take RCE1 (UniProt Q9Y256): the log2 fold change was inactive: 0.013.

Take REEP5 (UniProt Q00765): the log2 fold change was inactive: 0.025.

Take RING1 (UniProt Q06587): the log2 fold change is inactive: -0.131.

In the case of RNASE4 (UniProt P34096), the log2 fold change is inactive: 0.065.

For RNF126 (UniProt Q9BV68), the log2 fold change was inactive: 0.066.

In the case of RHOC (UniProt P08134), the log2 fold change is inactive: 0.

As for RELN (UniProt P78509), the log2 fold change was inactive: 0.015.

On to RCC1L (UniProt Q96I51), for which the log2 fold change is inactive: -0.005.

RNF213 isoform 4 (UniProt Q63HN8): the log2 fold change was inactive: 0.109.

In the case of RNASEH2C (UniProt Q8TDP1), the log2 fold change was inactive: -0.073.

As for RNF113A (UniProt O15541), the log2 fold change was inactive: 0.024.

Turning to RNF121 (UniProt Q9H920), the log2 fold change was inactive: -0.002.

In the case of REPIN1 isoform 4 (UniProt Q9BWE0), the log2 fold change is inactive: 0.038.

As to RBX1 (UniProt P62877), the log2 fold change is inactive: -0.033.

For the target RIMKLB (UniProt Q9ULI2), the log2 fold change is inactive: 0.162.

Regarding RFC4 (UniProt P35249), the log2 fold change was inactive: -0.037.

On to RINT1 (UniProt Q6NUQ1), for which the log2 fold change is inactive: 0.086.

As for RFXAP (UniProt O00287), the log2 fold change is inactive: -0.018.

Values taken from the supplement of paper PMC10849652.
